## Screening data

Source: PubChem BioAssay AID1224904 (Broad Institute, 2016).

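Selective DUX4 reporter inhibition in doxycycline-induced 293T-iDUX4 cells, scored as Gaussia percent activity minus Italica percent activity, after a 24-hour treatment.
The test concentration is not given here.
Percent difference between the Gaussia and Italica channels; more negative values mean more selective suppression of the DUX4 reporter, and higher values mean less activity.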

Values are in %.
How 0% and 100% were set is not given here.
Common to all entries: measured here: selective DUX4 reporter inhibition.
Part of the compounds only, not a random draw; the main read-out is not listed here.

With COc1cccc(S(=O)(=O)N2CC3(CCN(C)CC3)c3c(n(C)c4cc(OC)ccc34)[C@@H]2CO)c1 the assay gave Gaussia minus Italica difference 7.253%.
With N#Cc1ccc(-c2ccc3c(c2)[C@@H]2[C@@H](CCN2C(=O)Cc2ccccc2)[C@@H](CO)N3)cc1 the assay gave Gaussia minus Italica difference -17.68%.
With C[C@@H]1CN([C@H](C)CO)C(=O)c2c(c3ccccc3n2C)-c2ccccc2CO[C@@H]1CN(C)S(=O)(=O)c1cccc(C#N)c1 the assay gave Gaussia minus Italica difference -8.588%.
With COc1cccc(-c2ccc3c(c2)[C@@H]2[C@@H](CCN2S(=O)(=O)c2ccccc2C)[C@@H](CO)N3)c1 the assay gave Gaussia minus Italica difference 30.86%.
With O=C(Cc1cccnc1)N1CCCCN2[C@@H](CO)[C@H](c3ccc(C#CC4CCCC4)cc3)[C@@H]2C1 the assay gave Gaussia minus Italica difference 5.528%.
With N#Cc1cccc(-c2ccc3c(c2)[C@@H]2[C@@H](CCN2C(=O)c2ccc4c(c2)OCO4)[C@H](CO)N3)c1 the assay gave Gaussia minus Italica difference 11.81%.
With O=C(Nc1cccc(Cl)c1)N[C@H]1CC[C@H](CCn2cc(Cc3ccccc3)nn2)O[C@@H]1CO the assay gave Gaussia minus Italica difference -3.201%.
With O=C(C[C@@H]1CC[C@H]2[C@@H](COC[C@@H](O)CN2S(=O)(=O)c2ccc(Cl)cc2)O1)NCc1ccc(Cl)c(Cl)c1 the assay gave Gaussia minus Italica difference 0.2203%.
With C[C@@H]1CN([C@@H](C)CO)C(=O)c2c(c3ccccc3n2C)-c2ccccc2CO[C@H]1CN(C)S(=O)(=O)Cc1ccccc1 the assay gave Gaussia minus Italica difference 3.018%.
With O=C(C1CCCCC1)N1CC2(C1)[C@H](c1ccccc1)[C@H](CO)N2Cc1ccc(Cl)cc1 the assay gave Gaussia minus Italica difference -6.341%.
With OC[C@@H]1[C@H](c2ccc(C3=CCCCC3)cc2)[C@@H]2CN(CCC(F)(F)F)CCCCN12 the assay gave Gaussia minus Italica difference -10.9%.
With CN1CCN(C(=O)C[C@@H]2CC[C@H]3[C@@H](COC[C@@H](O)CN3Cc3ccc(Oc4ccccc4)cc3)O2)CC1 the assay gave Gaussia minus Italica difference -8.181%.
With COc1ccc(CN2C[C@H](C)[C@@H](OC)CN(C)C(=O)c3cc(NC(=O)c4nc5ccccc5s4)ccc3OC[C@@H]2C)cc1 the assay gave Gaussia minus Italica difference -0.234%.
With COc1cccc(S(=O)(=O)Nc2ccc3c(c2)[C@@H]2C[C@H](CC(=O)NCc4ccc(Cl)cc4)O[C@H](CO)[C@@H]2O3)c1 the assay gave Gaussia minus Italica difference 0.6455%.
With N#Cc1ccc(-c2ccc3c(c2)[C@H]2[C@H](CCN2C(=O)c2ccc4c(c2)OCO4)[C@@H](CO)N3)cc1 the assay gave Gaussia minus Italica difference -16.29%.
With N#C[C@H]1[C@@H](c2ccccc2-c2ccccc2)[C@@H](CO)N1C(=O)Cc1ccccc1 the assay gave Gaussia minus Italica difference -10.93%.
With COc1ccccc1S(=O)(=O)N1CC[C@@H]2[C@H]1c1cc(-c3cccc(C#N)c3)ccc1N(C)[C@H]2CO the assay gave Gaussia minus Italica difference -3.465%.
With COc1cccc(-c2ccc(C3[C@@H]4CN(Cc5ccccn5)C[C@H]3N4)cc2)c1 (stereo partly drawn) the assay gave Gaussia minus Italica difference -13.98%.
With C[C@@H]1CCCCO[C@@H](CN(C)Cc2ccc(C(F)(F)F)cc2)[C@H](C)CN([C@H](C)CO)C(=O)c2cc(NC(=O)c3ccccc3)ccc2O1 the assay gave Gaussia minus Italica difference 16.08%.
With COc1ccc(S(=O)(=O)N(C)C[C@@H]2OCc3ccccc3-c3c(n(C)c4ccccc34)C(=O)N([C@H](C)CO)C[C@@H]2C)cc1 the assay gave Gaussia minus Italica difference -10.72%.
With O=C(C1CCCCC1)N1CC2(C1)[C@@H](c1ccccc1)[C@@H](CO)N2CCC(F)(F)F the assay gave Gaussia minus Italica difference -17.45%.
With CN1c2ccc(-c3ccc(C#N)cc3)cc2[C@@H]2[C@@H](CCN2C(=O)CC2CC2)[C@H]1CO the assay gave Gaussia minus Italica difference -22.74%.
With COc1cccc(S(=O)(=O)Nc2ccc3c(c2)[C@@H]2C[C@H](CC(=O)NCc4cccc(F)c4)O[C@@H](CO)[C@@H]2O3)c1 the assay gave Gaussia minus Italica difference -5.358%.
With COCC(=O)N1CC[C@@H]2[C@H]1c1cc(-c3cccc(OC)c3)ccc1N(C)[C@@H]2CO the assay gave Gaussia minus Italica difference -9.534%.
With C[C@H]1CN([C@@H](C)CO)C(=O)c2c(c3ccccc3n2C)-c2ccccc2CO[C@H]1CN(C)S(=O)(=O)c1cccc(C#N)c1 the assay gave Gaussia minus Italica difference 4.539%.
With O=C(C[C@@H]1CC[C@@H]2[C@H](COC[C@@H](O)CN2CCC(F)(F)F)O1)N1CCC(Cc2ccccc2)CC1 the assay gave Gaussia minus Italica difference -9.235%.
With COc1ccc(S(=O)(=O)N2CCCCN3[C@H](C2)[C@@H](c2ccc(C#CC(C)C)cc2)[C@@H]3CO)cc1 the assay gave Gaussia minus Italica difference -17.78%.
With Cc1ccc(S(=O)(=O)N2C[C@H](O)COC[C@H]3O[C@H](CC(=O)NCC4CCCCC4)CC[C@@H]32)cc1 the assay gave Gaussia minus Italica difference -0.9002%.
With COc1ccc(CN2C[C@H](O)COC[C@@H]3O[C@H](CC(=O)N4CCc5ccccc5C4)CC[C@H]32)cc1 the assay gave Gaussia minus Italica difference -10.59%.
With COc1ccc2c3c(n(C)c2c1)[C@@H](CO)N(Cc1ccccc1OC)CC31CN(CC2CCOCC2)C1 the assay gave Gaussia minus Italica difference -10.17%.
With COc1cc(CN2C[C@@H]3N[C@H](C2)C3c2ccc(-c3ccncc3)cc2)cc(OC)c1 (stereo partly drawn) the assay gave Gaussia minus Italica difference -16.36%.
With COc1ccc2c3c([nH]c2c1)[C@H](CO)N(Cc1ccccc1)CC31CCN(C(=O)c2ccccn2)CC1 the assay gave Gaussia minus Italica difference -0.5834%.
With COc1ccc(S(=O)(=O)N2CC3(CN(Cc4ccccc4OC)[C@@H](CO)c4[nH]c5cc(OC)ccc5c43)C2)cc1 the assay gave Gaussia minus Italica difference -16.49%.
With Cc1ccccc1S(=O)(=O)N1C[C@@H](O)COC[C@H]2O[C@@H](CC(=O)N3CCC(Cc4ccccc4)CC3)CC[C@@H]21 the assay gave Gaussia minus Italica difference -0.3358%.
With O=C(Cc1ccccn1)N1CCCCN2[C@H](CO)[C@H](c3ccc(C#Cc4ccccc4)cc3)[C@H]2C1 the assay gave Gaussia minus Italica difference 2.232%.
With O=C(Nc1cccc(F)c1)N1CCCCN2[C@H](C1)[C@@H](c1ccc(C#CC3CC3)cc1)[C@@H]2CO the assay gave Gaussia minus Italica difference -17.91%.
With COc1ccccc1C#Cc1ccc([C@@H]2[C@@H](CO)N3CCCCN(C(=O)C4CCC4)C[C@H]23)cc1 the assay gave Gaussia minus Italica difference -6.812%.
With COc1ccc2c3c(n(C)c2c1)[C@H](CO)N(C(=O)CC1CC1)CC31CN(Cc2ccccc2)C1 the assay gave Gaussia minus Italica difference 2.942%.
With O=C(N[C@@H]1CC[C@H](CCn2cc(-c3ccccc3)nn2)O[C@H]1CO)c1ccccc1F the assay gave Gaussia minus Italica difference -7.566%.

Once more, the final 3:

| compound | Gaussia minus Italica difference (%) |
|---|---|
| `COc1ccccc1C#Cc1ccc([C@@H]2[C@@H](CO)N3CCCCN(C(=O)C4CCC4)C[C@H]23)cc1` | -6.812 |
| `COc1ccc2c3c(n(C)c2c1)[C@H](CO)N(C(=O)CC1CC1)CC31CN(Cc2ccccc2)C1` | 2.942 |
| `O=C(N[C@@H]1CC[C@H](CCn2cc(-c3ccccc3)nn2)O[C@H]1CO)c1ccccc1F` | -7.566 |